Some entries of the source have several records that differ or are many. This list holds those alone. The source may hold further records. The records of an entry do not match, cause unknown; dose, time, organism, isomer or construct need not be as stated for each record.

Chains of the proteins cited; added tags and fusions are not shown.
UniProt P34972, whole entry: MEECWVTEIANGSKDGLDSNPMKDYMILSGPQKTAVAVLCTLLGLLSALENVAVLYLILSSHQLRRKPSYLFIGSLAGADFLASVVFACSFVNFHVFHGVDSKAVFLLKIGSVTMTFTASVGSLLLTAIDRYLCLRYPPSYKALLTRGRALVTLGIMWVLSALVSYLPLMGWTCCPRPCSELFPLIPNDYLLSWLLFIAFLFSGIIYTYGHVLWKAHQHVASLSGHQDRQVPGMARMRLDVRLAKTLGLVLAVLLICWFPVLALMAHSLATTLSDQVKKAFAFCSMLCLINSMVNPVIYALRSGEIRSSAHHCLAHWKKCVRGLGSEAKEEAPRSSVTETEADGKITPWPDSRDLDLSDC

One data set addresses hCB2R (Homo sapiens, UniProt P34972). Put plainly: [3H]CP55940 displacement assay. It counts as binding. The following applies: 10^(pKi CB2R-pKi CB1R).
With `Cc1ccc2c(c1)Cc1c(C(=O)NN3CCCCC3)nn(-c3ccc(Cl)cc3Cl)c1-2` [Gp-1a], the “CB2R Selectivity (binding, human)” value is “less than 30 fold and 5 fold”.

Test system in the next data set: not given
Test: not given
The following applies: i.v., mice.
For `CCCCCCC(C)(C)c1cc(OC)c(C2=C[C@H]3CC[C@]2(CO)C3(C)C)c(OC)c1` [HU910], the Vss was 0.26 L/kg and < 1 L/kg.
For the compound `Cc1ccc2c(c1)Cc1c(C(=O)NN3CCCCC3)nn(-c3ccc(Cl)cc3Cl)c1-2` [Gp-1a], the distribution volume (Vss) is 9.9 L/kg and > 3 L/kg.
As to `COc1ccc(C(=O)c2c(C)n(CCN3CCOCC3)c3cc(I)ccc23)cc1` [AM630], the Vss is 14.0 L/kg and > 3 L/kg.
`CN1CCCC[C@H]1Cn1cc(C(=O)c2cc([N+](=O)[O-])ccc2I)c2ccccc21` [(S)-AM1241]: the Vss was 9.3 L/kg and > 3 L/kg.
With `CCCn1c(C)c(C(=O)c2cccc3ccccc23)c2ccccc21` [JWH015], the distribution volume (Vss) was 10.1 L/kg and > 3 L/kg.

As usually defined, the Vss is a proportionality between amount in the body and measured concentration, not a real space.

The record behind these values is publication PMC5216056 (Nature Communications, 2017).
